This is one part of the list.

The chains behind the UniProt entries cited, without tags or fusion partners.
UniProt Q0JBA9, entry or part of it: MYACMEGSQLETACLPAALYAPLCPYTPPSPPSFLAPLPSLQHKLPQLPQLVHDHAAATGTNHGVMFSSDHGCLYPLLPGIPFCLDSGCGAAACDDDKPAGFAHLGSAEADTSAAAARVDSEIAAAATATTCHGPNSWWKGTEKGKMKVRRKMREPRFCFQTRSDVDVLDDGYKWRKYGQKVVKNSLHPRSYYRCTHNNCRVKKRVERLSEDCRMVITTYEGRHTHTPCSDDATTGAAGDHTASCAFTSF

This assay addresses OsWRKY34 (Oryza sativa, UniProt Q0JBA9 1-250). Kind of assay: protein-binding microarray (RPBM); PBS, 2% BSA, 51.3 ng/ul salmon testes DNA, 50 uM zinc acetate, 200 nM TF, 25 C, 1 h; high values mean tight binding. Conditions: protein: recombinant; tags: N-terminal polyhistidine and DsRed monomer fusion (pET32a); label: CyDye5-dUTP incorporated in the synthesized complementary strand; 3' TTTTT single-stranded linker to array surface; dsDNA, one strand shown. An outline of the steps: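 Transcription factors were each fused at the N-terminus to a polyhistidine tag plus DsRed and expressed in E. coli BL21-CodonPlus before Ni–NTA purification. Binding to a double-stranded custom Agilent array was carried out with 200 nM protein at 25 °C for 1 h in PBS, 2% BSA, salmon testes DNA and 50 µM zinc acetate. The binding signal is per-feature fluorescence intensity, in arbitrary units, on an Axon 4000B scanner.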
Consider “CAATCTAGAGCCTGGGTATTGTGTTGTTCACTCCATTCTTCGGAGTCACCTAGTGCAG”, for which the binding signal was 8130 fluorescence intensity (a.u.).

On to “ATCCTTCATCAGTGGTTGTGAATGACTGACTTTTTCAATCCGGAGTCACCTAGTGCAG”, for which the binding signal is 8520 fluorescence intensity (a.u.).

In the case of “GGGAGGTCTTGGAGGTCGCAGTCAGGTGGTGATGGAGGGTCGGAGTCACCTAGTGCAG”, the binding signal is 8750 fluorescence intensity (a.u.).

“CTCTGTTCGTTTATTCCCACAGTGGCTACCAGTAGGTAAACGGAGTCACCTAGTGCAG”: the binding signal was 8130 fluorescence intensity (a.u.).

For “GTCCGCATCCAATTCCCGGGCCATTCGAAATCCCCAACACCGGAGTCACCTAGTGCAG”, the binding signal was 10200 fluorescence intensity (a.u.).

Consider “CCACCTCGCTTACCGACGCATCGCGGCGCCGCTTCAAAACCGGAGTCACCTAGTGCAG”, for which the binding signal was 8520 fluorescence intensity (a.u.).

Take “GTTTGTCTCGAATACTCTCCTCTCTCAAACACTTCCGTATCGGAGTCACCTAGTGCAG”: the binding signal was 8330 fluorescence intensity (a.u.).

With “CATCAGCCTGAGGTTTCCACGAAGTACCATCCCATCTATACGGAGTCACCTAGTGCAG”, the binding signal was 8690 fluorescence intensity (a.u.).

As for “CCTCGCTCTCCATGGTGGTGGTGGTGGTCAGGTGGTGGGGCGGAGTCACCTAGTGCAG”, the binding signal was 18800 fluorescence intensity (a.u.).

As to “ACTCCACTCGCTCCCTCCCATCAGCGTTTCGCTCTCGTTTCGGAGTCACCTAGTGCAG”, the binding signal was 8580 fluorescence intensity (a.u.).

On to “TTCACCTCGATCTCCTCCGGGCAAACCGCGACATTTGAAACGGAGTCACCTAGTGCAG”, for which the binding signal was 9140 fluorescence intensity (a.u.).

For the sequence “CTCTGTCTCTCTTCTTCTCTCTACTTCGATAGCCAAAGCTCGGAGTCACCTAGTGCAG”, the binding signal is 8490 fluorescence intensity (a.u.).

For “ACCACTCACCTCATGATTTTCGTTGTATTCGTTCCAGTCCCGGAGTCACCTAGTGCAG”, the binding signal is 20000 fluorescence intensity (a.u.).

Consider “TTCTGTTTTTTTATTTTTCCAAAGTAATTGCAATACCTACCGGAGTCACCTAGTGCAG”, for which the binding signal was 9740 fluorescence intensity (a.u.).

As to “CCATCTCACTGACTAGCTCGAGCTCACCATGGAATTCTCCCGGAGTCACCTAGTGCAG”, the binding signal is 8570 fluorescence intensity (a.u.).

Consider “GTTCAGGTCGTCTGCATTGTTCACTGGTACTGTCCATATACGGAGTCACCTAGTGCAG”, for which the binding signal was 10100 fluorescence intensity (a.u.).

As to “ATTAGGTCGCGTATAGGGATGGTAGTTTTGCTAGTTTGTCCGGAGTCACCTAGTGCAG”, the binding signal was 9610 fluorescence intensity (a.u.).

For “GCAGTAATTAGCTTGTGCACCTTACCTTCTGATGCAGCTCCGGAGTCACCTAGTGCAG”, the binding signal was 10100 fluorescence intensity (a.u.).

Take “TATGTATGGGTCTTTTTATGGGTCTTACGGATAGTAACTTCGGAGTCACCTAGTGCAG”: the binding signal is 8450 fluorescence intensity (a.u.).

In the case of “GAACTAGTCCGCCTAATTGTTGGCTCTCTTATCTCTTCATCGGAGTCACCTAGTGCAG”, the binding signal was 12100 fluorescence intensity (a.u.).

Take “CAAACCCCACCGCGACCGCGACTCCGACGTCTCCGCCACGCGGAGTCACCTAGTGCAG”: the binding signal is 8050 fluorescence intensity (a.u.).

In the case of “CAGTACTTCTCTCCGTCCGTTCTCCTCCCTACTTCTCTCTCGGAGTCACCTAGTGCAG”, the binding signal is 8210 fluorescence intensity (a.u.).

In the case of “GGGATCTGTTTTCCTACTCACGTGTATTAACTAAACACTCCGGAGTCACCTAGTGCAG”, the binding signal is 14900 fluorescence intensity (a.u.).

For the sequence “AGGCGGGGATTTGCTAGGGTTTTTCCGAAGGGATGGAGGACGGAGTCACCTAGTGCAG”, the binding signal was 8710 fluorescence intensity (a.u.).

As for “CTAACCCCTGTCGTATTAGCATCATATCGTCGTCGTATGTCGGAGTCACCTAGTGCAG”, the binding signal is 9850 fluorescence intensity (a.u.).

As for “AAGCACCTGCGAGGCTTACCGTTCTTGCTCGCCCGCCGCCCGGAGTCACCTAGTGCAG”, the binding signal is 9180 fluorescence intensity (a.u.).

With “AACCATATTTTCATTTAAATTACTTAGTTTTGACATTAATCGGAGTCACCTAGTGCAG”, the binding signal was 8800 fluorescence intensity (a.u.).

“CACCTGATTGCCATTGTCCGTGAATTACGCTTTTACGGTTCGGAGTCACCTAGTGCAG”: the binding signal was 10900 fluorescence intensity (a.u.).

With “CCATCCACCGCGATTTTCACCCGCGCTCTCGCCACCACGCCGGAGTCACCTAGTGCAG”, the binding signal was 9390 fluorescence intensity (a.u.).

With “GGTGGCGGCAGGTGGTGGGATGGAGTAGCGCACGGGGATGCGGAGTCACCTAGTGCAG”, the binding signal was 13000 fluorescence intensity (a.u.).

As for “CGTGGTGAAGTGGTGGGGAGTTGCGGGAGGGAGGCATAGGCGGAGTCACCTAGTGCAG”, the binding signal was 12400 fluorescence intensity (a.u.).

As for “GATACATCACATTTCTTTCTTCAAAACACACACACACACACGGAGTCACCTAGTGCAG”, the binding signal was 8300 fluorescence intensity (a.u.).

In the case of “GACATGGCACGTTGACTTGGTCCAGCTGTGCTGACGTGGCCGGAGTCACCTAGTGCAG”, the binding signal was 10000 fluorescence intensity (a.u.).

Turning to “AATCTACTTGTTAAGTTCATTTCTTTAATATTTATTTGTTCGGAGTCACCTAGTGCAG”, the binding signal is 9180 fluorescence intensity (a.u.).

As to “TTTTGCCCACAACTACATGCTCCTTTTTGTGTTCTTGTTTCGGAGTCACCTAGTGCAG”, the binding signal was 10000 fluorescence intensity (a.u.).

On to “GCGTGGATCTCGGGGCGCGGGGCTAGGGTTTAGTATGGCTCGGAGTCACCTAGTGCAG”, for which the binding signal was 12800 fluorescence intensity (a.u.).

As for “GGCGGGAGGCGCGGGCGGCGAGGTGCTCCTCTTCTCTCTCCGGAGTCACCTAGTGCAG”, the binding signal was 9060 fluorescence intensity (a.u.).

Regarding “TTGCTTGTGTTGATGTGTGTAATTAACAGATACTTGTAATCGGAGTCACCTAGTGCAG”, the binding signal is 8470 fluorescence intensity (a.u.).

For “GCCGCACAACCCACCACCACCACCACCACCGATCTGCGGACGGAGTCACCTAGTGCAG”, the binding signal is 9940 fluorescence intensity (a.u.).

Turning to “TACCCGATCTTACATAACATTGACATGGTATGTCATACACCGGAGTCACCTAGTGCAG”, the binding signal was 8940 fluorescence intensity (a.u.).

In the case of “TCTGGTCCCATCTGTCATACACACATTACGTCTTGTAGTCCGGAGTCACCTAGTGCAG”, the binding signal was 10300 fluorescence intensity (a.u.).

Consider “CGTTATTATGTGGTTGTTGATGCTTATTCTACGTTAAGCACGGAGTCACCTAGTGCAG”, for which the binding signal is 10300 fluorescence intensity (a.u.).

For the origin of these results see paper PMC7819943, “Rice protein-binding microarrays: a tool to detect cis-acting elements near promoter regions in rice”.
